The list shows a part of the results. Shown are side measurements of this screen, not its main read-out; they come without a call. Most of these compounds were active or inconclusive in the main read-out, so they are no random draw. Potencies come from curve fits of mixed quality, noted in brackets.

The experiment in a line: qHTS Assay for Lipid Storage Modulators in Drosophila S3 Cells.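 On cell number change: cells counted by Cell Tracker Red CMTPX staining in the red channel.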 As to conditions: BODIPY lipid droplet fluorescence, 18-24 h; for cell number change: measured here: cell count max response, cells fed with added oleic acid. Summed up:
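Drosophila S3 cells got compounds at several concentrations plus oleic acid (400 uM solution). Laser-scanning cytometry with 488 nm excitation read lipid droplets at 500-530 nm and cells at 575-640 nm. Percent activity was relative to 20 uM Triacsin C.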

Where [1] appears, read: measured here: cell number channel AC50, cells fed with added oleic acid.
[2] abbreviates: measured here: lipid fluorescence (Fed channel) AC50, cells fed with added oleic acid.

On to `CCOC(=O)C(=O)Nc1ccccc1C(=O)NCc1ccccc1`, for which the cell number change was -6.37%.

The term AC50 denotes the midpoint of the concentration-response curve, whichever way the signal moves. A low value points to greater potency. As for `CCCc1cc(=O)[nH]c(SCc2cccc(C)c2)n1`, the cell number change was -31.5%. Moreover, the AC50 under setting [1] is 16.4 µM [falling, single point]. In addition, under setting [2], the AC50 was 18.4 µM [falling, single point].

As for `C=CCn1c(SCC(N)=O)nnc1-c1cnccn1`, the cell number change was -3.53%. Further, the AC50 under setting [2] is 3.26 µM [falling, partial curve].

`CC1=NN(c2ccccc2)C(=O)C1N=Nc1ccc(N)cc1` (configuration not stated): the cell number change was -91%. Under setting [1], the concentration at half-maximal activity (AC50) is 18.4 µM [falling, partial curve]. Besides, under setting [2], the AC50 was 14.6 µM [falling, partial curve].

For `CC(C)(C)[C@H]1C=C(C(=O)N2CCN(Cc3ccccc3)CC2)O[C@@H](OCc2ccc(CO)cc2)C1`, the cell number change was -19.4%. Also, under setting [2], the AC50 is 8.2 µM [falling, partial curve].

As for `COc1ccccc1N(CC(=O)Nc1ccccc1)S(=O)(=O)c1cccs1`, the cell number change was -22.5%. Moreover, under setting [2], the AC50 is 32.6 µM [rising, single point].

Regarding `CC(=O)N/N=C(\C)c1cccc(NC(=O)c2cccs2)c1`, the cell number change amounted to 9.56%. Moreover, the AC50 under setting [2] is 3.26 µM [rising, full curve].

For `O=C1/C(=C/c2ccc(F)cc2)Oc2cc(OC(=O)N3CCOCC3)ccc21`, the cell number change is -48.5%. In addition, the AC50 under setting [1] is 5.17 µM [falling, full curve].

Regarding `CCOc1ccc(-c2nnn(CC(=O)NCc3ccccc3)n2)cc1`, the cell number change was 30.4%. Under setting [2], the AC50 is 0.259 µM [rising, full curve].

As for `Cc1nc(Sc2nnnn2C)c2c3c(sc2n1)CCC3`, the cell number change was -25.3%. For the same compound, the AC50 under setting [2] is 4.11 µM [rising, single point].

On to `O=C(CNS(=O)(=O)c1ccccc1)N1CCc2ccccc2C1`, for which the cell number change was -8.21%. The AC50 under setting [2] is 4.11 µM [rising, full curve].

Consider `COc1ccc([N+](=O)[O-])cc1N(CC(=O)Nc1ccccc1C(=O)N1CCOCC1)S(C)(=O)=O`, for which the cell number change amounted to 6.81%.

In the case of `CCCCCC(C)n1[nH]c(=O)cc1N` (configuration not stated), the cell number change was -37.5%. In addition, the AC50 under setting [1] was 1.03 µM [falling, full curve]. Besides, under setting [2], the AC50 is 6.51 µM [falling, single point].

For `CN1CCN(S(=O)(=O)c2cccc(S(=O)(=O)c3ccc(Cl)cc3)c2)CC1`, the cell number change was -2.49%. For the same compound, the AC50 under setting [2] is 1.64 µM [rising, partial curve].

With `Cc1ccc(NC(=O)CSc2nnc(CCC(=O)O)c(=O)[nH]2)cc1`, the cell number change was -33.6%. For the same compound, under setting [2], the AC50 was 16.4 µM [falling, single point].

With `O=Cc1cc(CCC(=O)O)ccc1O`, the cell number change amounted to 31.7%.

`O=C(NCCN1CCOCC1)N1CCOCC1`: the cell number change is -16.7%. Moreover, the AC50 under setting [2] is 0.82 µM [falling, full curve, poor fit].

Consider `CC(C)CCN(C(=O)c1cn2ccccc2n1)c1c(N)n(Cc2ccccc2)c(=O)[nH]c1=O`, for which the cell number change is 55%. In addition, the AC50 under setting [1] was 8.2 µM [rising, partial curve]. Also, the AC50 under setting [2] was 3.66 µM [rising, partial curve].
